Assay results from the supplement of paper PMC10849652.
Some of the results follow.

Protein sequences, listed by entry. Tags and fused reporters are not part of them. Lines headed by an entry give the natural chain unless they say otherwise; changes in a name come on top.
UniProt P50851: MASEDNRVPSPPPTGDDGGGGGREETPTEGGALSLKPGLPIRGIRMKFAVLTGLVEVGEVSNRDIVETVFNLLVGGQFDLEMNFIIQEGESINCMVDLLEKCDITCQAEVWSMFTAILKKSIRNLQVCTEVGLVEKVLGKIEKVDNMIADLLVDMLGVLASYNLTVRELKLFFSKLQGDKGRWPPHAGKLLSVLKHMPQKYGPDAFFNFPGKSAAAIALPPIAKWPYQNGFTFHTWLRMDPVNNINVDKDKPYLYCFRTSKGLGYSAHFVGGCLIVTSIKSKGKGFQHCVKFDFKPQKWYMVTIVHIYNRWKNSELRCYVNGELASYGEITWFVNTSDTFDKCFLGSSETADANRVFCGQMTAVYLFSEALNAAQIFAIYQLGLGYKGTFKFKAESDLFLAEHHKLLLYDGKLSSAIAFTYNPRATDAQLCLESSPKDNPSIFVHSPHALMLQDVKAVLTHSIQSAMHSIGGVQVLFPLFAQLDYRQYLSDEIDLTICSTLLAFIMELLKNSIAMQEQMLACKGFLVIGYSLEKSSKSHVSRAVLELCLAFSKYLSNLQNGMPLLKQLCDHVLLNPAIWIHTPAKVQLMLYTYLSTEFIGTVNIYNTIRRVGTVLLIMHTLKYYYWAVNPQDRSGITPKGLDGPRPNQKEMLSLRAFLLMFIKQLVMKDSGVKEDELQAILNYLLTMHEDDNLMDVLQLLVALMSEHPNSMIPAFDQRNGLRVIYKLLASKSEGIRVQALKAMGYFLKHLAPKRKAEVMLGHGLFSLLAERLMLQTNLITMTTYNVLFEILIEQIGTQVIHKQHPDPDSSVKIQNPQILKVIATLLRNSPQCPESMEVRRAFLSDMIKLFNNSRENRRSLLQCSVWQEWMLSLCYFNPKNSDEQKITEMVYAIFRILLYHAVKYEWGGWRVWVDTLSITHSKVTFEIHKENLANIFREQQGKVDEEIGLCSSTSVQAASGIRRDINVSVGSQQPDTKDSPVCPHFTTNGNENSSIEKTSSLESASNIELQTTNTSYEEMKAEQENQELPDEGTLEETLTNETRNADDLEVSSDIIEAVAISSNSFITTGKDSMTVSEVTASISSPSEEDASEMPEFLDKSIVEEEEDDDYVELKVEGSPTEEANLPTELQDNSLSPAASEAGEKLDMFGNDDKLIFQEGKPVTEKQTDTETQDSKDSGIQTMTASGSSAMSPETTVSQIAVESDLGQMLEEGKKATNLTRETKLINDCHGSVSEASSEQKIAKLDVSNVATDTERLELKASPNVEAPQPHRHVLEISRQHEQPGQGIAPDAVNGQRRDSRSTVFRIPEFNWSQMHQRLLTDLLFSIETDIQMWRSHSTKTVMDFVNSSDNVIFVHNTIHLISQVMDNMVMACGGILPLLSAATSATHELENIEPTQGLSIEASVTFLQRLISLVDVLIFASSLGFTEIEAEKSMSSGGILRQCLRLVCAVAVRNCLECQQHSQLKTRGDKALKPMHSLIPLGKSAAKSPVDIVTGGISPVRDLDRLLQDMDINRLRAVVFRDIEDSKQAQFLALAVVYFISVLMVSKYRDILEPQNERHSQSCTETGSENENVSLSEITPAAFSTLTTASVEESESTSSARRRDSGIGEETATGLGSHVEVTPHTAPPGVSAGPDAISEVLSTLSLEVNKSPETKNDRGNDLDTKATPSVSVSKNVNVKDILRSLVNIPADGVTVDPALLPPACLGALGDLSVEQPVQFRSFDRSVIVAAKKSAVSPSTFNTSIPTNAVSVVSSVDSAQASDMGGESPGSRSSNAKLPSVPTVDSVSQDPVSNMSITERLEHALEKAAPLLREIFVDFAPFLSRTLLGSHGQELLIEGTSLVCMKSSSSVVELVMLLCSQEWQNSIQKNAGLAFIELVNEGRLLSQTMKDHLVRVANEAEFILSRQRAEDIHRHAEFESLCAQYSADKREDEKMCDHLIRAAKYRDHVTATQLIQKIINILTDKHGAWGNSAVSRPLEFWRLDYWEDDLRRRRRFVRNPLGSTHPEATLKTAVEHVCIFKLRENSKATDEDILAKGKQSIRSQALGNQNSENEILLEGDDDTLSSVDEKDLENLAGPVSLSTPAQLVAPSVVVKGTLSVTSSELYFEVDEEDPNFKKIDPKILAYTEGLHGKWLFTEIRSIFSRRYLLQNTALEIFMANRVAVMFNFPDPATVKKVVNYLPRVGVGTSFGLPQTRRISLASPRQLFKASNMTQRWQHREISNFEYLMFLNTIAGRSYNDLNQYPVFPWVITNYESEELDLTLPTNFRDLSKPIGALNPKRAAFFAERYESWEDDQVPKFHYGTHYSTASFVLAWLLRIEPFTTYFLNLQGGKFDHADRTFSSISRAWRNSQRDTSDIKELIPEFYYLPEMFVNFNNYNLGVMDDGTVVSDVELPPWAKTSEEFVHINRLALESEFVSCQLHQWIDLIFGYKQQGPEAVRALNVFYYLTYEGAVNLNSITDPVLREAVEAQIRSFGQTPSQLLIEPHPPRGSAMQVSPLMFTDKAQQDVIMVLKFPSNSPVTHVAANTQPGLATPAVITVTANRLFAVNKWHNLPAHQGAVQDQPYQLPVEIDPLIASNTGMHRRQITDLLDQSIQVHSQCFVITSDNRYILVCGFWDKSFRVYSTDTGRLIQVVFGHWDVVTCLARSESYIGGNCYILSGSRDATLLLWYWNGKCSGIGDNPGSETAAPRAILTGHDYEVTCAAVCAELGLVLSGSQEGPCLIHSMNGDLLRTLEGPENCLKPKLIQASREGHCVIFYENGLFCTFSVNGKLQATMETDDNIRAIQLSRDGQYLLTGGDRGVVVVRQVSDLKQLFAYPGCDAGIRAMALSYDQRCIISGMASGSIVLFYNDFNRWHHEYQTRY
UniProt Q96PV6, whole entry, looked up: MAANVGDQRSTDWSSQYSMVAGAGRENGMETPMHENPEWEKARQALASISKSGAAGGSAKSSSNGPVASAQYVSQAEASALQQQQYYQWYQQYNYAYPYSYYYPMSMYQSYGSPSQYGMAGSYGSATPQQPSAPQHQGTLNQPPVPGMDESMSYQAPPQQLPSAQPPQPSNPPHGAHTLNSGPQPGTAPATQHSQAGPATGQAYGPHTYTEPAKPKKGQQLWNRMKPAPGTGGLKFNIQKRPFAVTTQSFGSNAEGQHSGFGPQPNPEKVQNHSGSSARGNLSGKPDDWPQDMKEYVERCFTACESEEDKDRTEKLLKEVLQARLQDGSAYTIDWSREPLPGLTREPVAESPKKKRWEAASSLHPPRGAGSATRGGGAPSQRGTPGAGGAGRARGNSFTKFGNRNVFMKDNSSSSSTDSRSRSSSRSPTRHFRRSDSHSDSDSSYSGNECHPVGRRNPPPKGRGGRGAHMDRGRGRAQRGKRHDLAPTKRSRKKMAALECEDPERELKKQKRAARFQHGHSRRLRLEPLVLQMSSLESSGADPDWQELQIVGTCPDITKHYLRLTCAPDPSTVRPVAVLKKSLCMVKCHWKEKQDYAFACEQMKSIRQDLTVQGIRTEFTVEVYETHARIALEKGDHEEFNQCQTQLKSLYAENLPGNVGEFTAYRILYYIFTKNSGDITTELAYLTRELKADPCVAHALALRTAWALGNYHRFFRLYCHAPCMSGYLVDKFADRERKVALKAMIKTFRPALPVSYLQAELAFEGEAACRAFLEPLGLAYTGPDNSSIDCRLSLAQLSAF
UniProt Q6P1M3: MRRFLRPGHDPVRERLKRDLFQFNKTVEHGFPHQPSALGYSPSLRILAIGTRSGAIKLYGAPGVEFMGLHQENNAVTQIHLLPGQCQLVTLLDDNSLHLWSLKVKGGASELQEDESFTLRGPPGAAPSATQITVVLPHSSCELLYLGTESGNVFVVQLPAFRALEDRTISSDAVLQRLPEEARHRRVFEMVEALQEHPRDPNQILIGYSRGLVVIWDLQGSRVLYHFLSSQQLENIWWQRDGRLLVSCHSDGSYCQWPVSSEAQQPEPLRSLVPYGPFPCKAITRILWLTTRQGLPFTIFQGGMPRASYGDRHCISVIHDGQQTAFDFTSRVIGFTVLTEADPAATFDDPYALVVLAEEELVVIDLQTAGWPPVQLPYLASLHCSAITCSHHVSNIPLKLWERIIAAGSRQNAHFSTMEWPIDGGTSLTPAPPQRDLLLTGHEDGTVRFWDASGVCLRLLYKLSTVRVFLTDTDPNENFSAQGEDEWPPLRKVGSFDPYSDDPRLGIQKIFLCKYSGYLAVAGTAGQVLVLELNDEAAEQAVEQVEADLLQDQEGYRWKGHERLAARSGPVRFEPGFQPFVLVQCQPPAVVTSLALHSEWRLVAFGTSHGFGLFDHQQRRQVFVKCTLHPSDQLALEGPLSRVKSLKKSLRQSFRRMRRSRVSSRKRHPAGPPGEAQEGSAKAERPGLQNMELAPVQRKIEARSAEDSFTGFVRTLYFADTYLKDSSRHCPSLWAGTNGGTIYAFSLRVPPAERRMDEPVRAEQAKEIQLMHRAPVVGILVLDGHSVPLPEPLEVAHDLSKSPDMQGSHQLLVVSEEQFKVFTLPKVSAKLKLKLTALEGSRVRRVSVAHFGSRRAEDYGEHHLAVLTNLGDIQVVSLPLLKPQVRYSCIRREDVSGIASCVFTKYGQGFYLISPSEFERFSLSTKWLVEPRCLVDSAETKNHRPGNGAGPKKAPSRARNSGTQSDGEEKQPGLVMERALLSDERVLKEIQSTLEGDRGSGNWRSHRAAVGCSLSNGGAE
UniProt P49916: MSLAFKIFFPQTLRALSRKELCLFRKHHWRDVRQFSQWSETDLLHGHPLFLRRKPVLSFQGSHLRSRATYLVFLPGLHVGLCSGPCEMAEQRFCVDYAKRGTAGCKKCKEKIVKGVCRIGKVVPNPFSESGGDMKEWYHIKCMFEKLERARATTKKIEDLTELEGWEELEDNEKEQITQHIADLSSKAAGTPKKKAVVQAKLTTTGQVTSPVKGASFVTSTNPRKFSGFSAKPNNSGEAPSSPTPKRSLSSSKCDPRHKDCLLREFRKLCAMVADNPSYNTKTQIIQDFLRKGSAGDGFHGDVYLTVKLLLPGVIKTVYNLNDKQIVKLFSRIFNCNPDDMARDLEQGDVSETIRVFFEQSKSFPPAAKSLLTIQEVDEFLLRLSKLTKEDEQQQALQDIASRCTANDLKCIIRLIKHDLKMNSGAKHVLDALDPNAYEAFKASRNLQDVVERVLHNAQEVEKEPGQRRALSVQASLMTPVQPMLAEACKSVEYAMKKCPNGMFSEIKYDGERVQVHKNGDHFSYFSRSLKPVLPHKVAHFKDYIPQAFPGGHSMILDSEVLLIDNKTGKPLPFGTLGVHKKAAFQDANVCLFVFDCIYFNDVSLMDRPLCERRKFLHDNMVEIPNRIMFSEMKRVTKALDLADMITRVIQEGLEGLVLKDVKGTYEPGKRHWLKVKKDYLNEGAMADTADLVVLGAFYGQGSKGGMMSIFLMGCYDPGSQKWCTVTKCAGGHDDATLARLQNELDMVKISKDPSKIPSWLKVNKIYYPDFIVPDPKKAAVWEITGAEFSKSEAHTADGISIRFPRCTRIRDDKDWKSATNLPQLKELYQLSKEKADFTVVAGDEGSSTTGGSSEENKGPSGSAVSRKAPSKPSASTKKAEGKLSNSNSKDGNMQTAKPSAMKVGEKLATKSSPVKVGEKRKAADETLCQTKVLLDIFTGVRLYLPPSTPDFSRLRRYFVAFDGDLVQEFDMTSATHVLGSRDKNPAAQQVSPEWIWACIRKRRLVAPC
UniProt Q8TCA0: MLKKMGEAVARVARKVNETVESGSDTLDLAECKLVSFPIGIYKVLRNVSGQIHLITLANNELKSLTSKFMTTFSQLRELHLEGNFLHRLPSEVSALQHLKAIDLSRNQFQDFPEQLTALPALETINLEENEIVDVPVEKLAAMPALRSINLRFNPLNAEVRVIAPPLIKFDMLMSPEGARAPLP
UniProt Q9BX40: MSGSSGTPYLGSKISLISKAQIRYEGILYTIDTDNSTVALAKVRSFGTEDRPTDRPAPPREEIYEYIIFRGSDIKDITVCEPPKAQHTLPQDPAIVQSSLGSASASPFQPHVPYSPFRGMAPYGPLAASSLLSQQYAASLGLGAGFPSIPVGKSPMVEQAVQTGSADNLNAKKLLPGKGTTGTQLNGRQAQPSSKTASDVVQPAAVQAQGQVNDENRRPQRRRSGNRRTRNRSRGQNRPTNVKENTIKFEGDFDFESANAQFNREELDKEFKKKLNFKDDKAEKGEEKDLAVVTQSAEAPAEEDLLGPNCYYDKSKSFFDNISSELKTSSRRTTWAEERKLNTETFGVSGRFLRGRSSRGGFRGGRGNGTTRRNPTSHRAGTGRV
UniProt P07864: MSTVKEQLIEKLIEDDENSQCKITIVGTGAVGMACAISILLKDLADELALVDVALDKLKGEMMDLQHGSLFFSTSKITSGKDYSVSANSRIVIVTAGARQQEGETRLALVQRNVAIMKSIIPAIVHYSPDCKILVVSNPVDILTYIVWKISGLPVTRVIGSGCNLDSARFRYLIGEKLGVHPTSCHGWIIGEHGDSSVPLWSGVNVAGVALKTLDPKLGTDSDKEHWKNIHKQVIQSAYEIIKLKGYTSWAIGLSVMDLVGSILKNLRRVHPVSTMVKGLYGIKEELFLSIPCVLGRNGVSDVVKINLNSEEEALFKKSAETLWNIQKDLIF

Legend:
Assay in all cases: log2 fold change, soluble protein after heating vs DMSO (PISA); higher = thermal stabilisation; K562 lysate, 10 uM; active = over 0.2 and 3.5 SD of the protein, either way, in both replicates (recomputed)
nilotinib = compound: Cc1cn(-c2cc(NC(=O)c3ccc(C)c(Nc4nccc(-c5cccnc5)n4)c3)cc(C(F)(F)F)c2)cn1 [nilotinib]
Summary of the method: (§1)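 Following dounce homogenisation of K562 pellets in PBS pH 7.4 with 1 mM MgCl2, crude extract at 1 mg/mL protein was incubated for 30 min with 10 μM compound. Aliquots were then heated for 3 min over 48°C-58°C and pooled, NP-40 was added to 0.5% at 4°C, and soluble protein was recovered as the supernatant at 21,000xg for 90 min. Channel-sum-equalised TMTpro 16plex LC-MS/MS quantified this protein. Each value, from duplicates, is a log-two fold change in thermal stability relative to solvent controls.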

[1] = compound: Cc1nc(Nc2n[nH]c3c2CN(C(=O)N[C@H](CN(C)C)c2ccccc2)C3(C)C)c2sccc2n1
Summary of the method: as §1

dasatinib = compound: Cc1nc(Nc2ncc(C(=O)Nc3c(C)cccc3Cl)s2)cc(N2CCN(CCO)CC2)n1 [dasatinib]
Summary of the method: as §1

[2] = compound: Cc1ncc(-c2ccnc(Nc3ccc(S(C)(=O)=O)cc3)n2)n1C(C)C
Summary of the method: as §1

[3] = compound: Cn1cc(-c2ccc3c(c2)CCN3C(=O)Cc2cccc(C(F)(F)F)c2)c2c(N)ncnc21
Summary of the method: as §1

quisinostat = compound: Cn1cc(CNCC2CCN(c3ncc(C(=O)NO)cn3)CC2)c2ccccc21 [quisinostat]
Summary of the method: as §1

tipifarnib = compound: Cn1cncc1[C@@](N)(c1ccc(Cl)cc1)c1ccc2c(c1)c(-c1cccc(Cl)c1)cc(=O)n2C [tipifarnib]
Summary of the method: as §1

[4] = compound: NC(=O)Nc1cc(-c2cccc(F)c2)sc1C(=O)N[C@H]1CCCNC1
Summary of the method: as §1

[5] = compound: NC(=O)c1cnc(N[C@@H]2CCCC[C@@H]2N)nc1Nc1cccc(-n2nccn2)c1
Summary of the method: as §1

[6] = compound: NC1(c2ccc(-c3nc4ccn5c(=O)[nH]nc5c4cc3-c3ccccc3)cc2)CCC1
Summary of the method: as §1

[7] = compound: NCC(=O)Nc1ccc(-n2nc(C(F)(F)F)cc2-c2ccc3c(ccc4ccccc43)c2)cc1
Summary of the method: as §1

vorinostat = compound: O=C(CCCCCCC(=O)Nc1ccccc1)NO [vorinostat]
Summary of the method: as §1

silmitasertib = compound: O=C(O)c1ccc2c(c1)nc(Nc1cccc(Cl)c1)c1ccncc12 [silmitasertib]
Summary of the method: as §1

[8] = compound: O=C1NC(=O)C(c2cnc3ccccn23)=C1c1cn2c3c(cc(F)cc13)CN(C(=O)N1CCCCC1)CC2
Summary of the method: as §1

entospletinib = compound: c1cn2cc(-c3ccc4cn[nH]c4c3)nc(Nc3ccc(N4CCOCC4)cc3)c2n1 [entospletinib]
Summary of the method: as §1

Target	log2 fold change (nilotinib)	log2 fold change [1]	log2 fold change (dasatinib)	log2 fold change [2]	log2 fold change [3]	log2 fold change (quisinostat)	log2 fold change (tipifarnib)	log2 fold change [4]	log2 fold change [5]	log2 fold change [6]	log2 fold change [7]	log2 fold change (vorinostat)	log2 fold change (silmitasertib)	log2 fold change [8]	log2 fold change (entospletinib)
LRRC47 (UniProt Q8N1G4)	inactive: 0.001	inactive: -0.019	inactive: -0.002	inactive: 0.015	inactive: 0.003	inactive: 0.075	inactive: 0.025	inactive: -0.014	inactive: -0.01	inactive: 0.003	inactive: 0.017	inactive: 0.015	inactive: 0.008	inactive: 0.009	inactive: 0.03
LRRC8C (UniProt E9PHY6)	inactive: -0.265	inactive: 0.032		inactive: -0.097			inactive: -0.06			inactive: 0.241	inactive: -0.003	inactive: -0.411	inactive: 0.034		
LRBA (UniProt P50851)	inactive: -0.006	inactive: 0.003	inactive: -0.03	inactive: 0.002	inactive: 0.008	inactive: -0.021	inactive: 0.006	inactive: 0.008	inactive: 0.004	inactive: -0.007	inactive: 0.011	inactive: -0.111	inactive: 0.008	inactive: 0	inactive: 0.014
LENG8 (UniProt Q96PV6)	inactive: -0.057	inactive: 0.02	inactive: 0.193	inactive: 0.064	inactive: -0.033	inactive: -0.051	inactive: -0.022	inactive: 0.058	inactive: -0.027	inactive: -0.159	inactive: -0.033	inactive: 0.11	inactive: 0.007	inactive: 0.064	inactive: 0.033
LLGL2 (UniProt Q6P1M3)	inactive: 0.071	inactive: 0.156	inactive: 0.126	inactive: -0.069	inactive: -0.105	inactive: -0.102	inactive: 0.125	inactive: 0.162	inactive: 0.07	inactive: 0.041	inactive: -0.102	inactive: 0.021	inactive: -0.077	inactive: -0.062	inactive: -0.29
LIG3 (UniProt P49916)	inactive: 0.012	inactive: 0.002	inactive: -0.011	inactive: -0.019	inactive: 0.046	inactive: -0.024	inactive: -0.004	inactive: 0.059	inactive: 0.008	inactive: 0.011	inactive: -0.061	active: -0.411	inactive: 0.018	inactive: -0.012	inactive: -0.004
LRRC20 (UniProt Q8TCA0)	inactive: 0.039	inactive: -0.034	inactive: 0.015	inactive: 0.008	inactive: 0.008	inactive: -0.017	inactive: 0.079	inactive: -0.056	inactive: -0.013	inactive: 0.014	inactive: -0.178	inactive: 0.134	inactive: 0.012	inactive: -0.098	inactive: -0.03
LCA5 (UniProt Q86VQ0)	inactive: -0.069	inactive: 0.202		inactive: -0.109		inactive: 0.027	inactive: 0.035	inactive: -0.017			inactive: 0.095			inactive: -0.083	inactive: -0.024
LIMK2 isoform 3 (UniProt P53671)	inactive: 0.074	inactive: 0.06	inactive: -0.126	inactive: 0.07	inactive: -0.099	inactive: -0.003	inactive: -0.05	inactive: -0.066	inactive: -0.064	inactive: 0.008	inactive: -0.011	inactive: -0.21	inactive: 0.114	inactive: 0.021	inactive: -0.055
LIN28A (UniProt Q9H9Z2)	inactive: -0.009	inactive: -0.023		inactive: 0.065			inactive: 0.052			inactive: 0.142		inactive: -0.117	inactive: -0.136		
LSM14B (UniProt Q9BX40)	inactive: -0.22	inactive: 0.007		inactive: -0.115		inactive: -0.142	inactive: -0.251	inactive: -0.01	inactive: -0.056	inactive: 0.016		inactive: -0.115	inactive: -0.196	inactive: -0.096	
LIMK1 (UniProt P53667)	inactive: -0.315	inactive: 0.008	inactive: 0.4	inactive: 0.031	inactive: 0.146	inactive: -0.145	inactive: 0.102	inactive: 0.126	inactive: 0.118		inactive: -0.127			inactive: 0.281	inactive: 0.027
LRRC41 (UniProt Q15345)	inactive: -0.01	inactive: 0.14	inactive: -0.005	inactive: -0.103	inactive: -0.103	inactive: -0.034	inactive: 0.105	inactive: 0.196	inactive: 0.075	inactive: 0.024	inactive: -0.017	inactive: -0.36	inactive: -0.085	inactive: -0.1	inactive: -0.021
LDHC (UniProt P07864)	inactive: 0.177	inactive: -0.016	inactive: 0.034	inactive: 0.04	inactive: -0.099		inactive: 0.01		inactive: 0.036	inactive: -0.079	inactive: 0.046	inactive: 0.1	inactive: -0.075		inactive: -0.014
LEPR (UniProt P48357)	inactive: -0.014	inactive: -0.01	inactive: -0.031	inactive: -0.003	inactive: 0.073	inactive: 0.051	inactive: 0.046	inactive: -0.026	inactive: 0.042	inactive: 0.009	inactive: 0.034	inactive: 0.037	inactive: 0.031	inactive: -0.015	inactive: -0.152
LRRC40 (UniProt Q9H9A6)	inactive: -0.008	inactive: -0.01	inactive: -0.012	inactive: -0.035	inactive: 0.017	inactive: 0.032	inactive: -0.032	inactive: 0.004	inactive: 0.004	inactive: 0.029	inactive: -0.005	active: -0.315	inactive: 0.027	inactive: -0.043	inactive: 0.02

Record cards, from the list above. Order of values: log2 fold change (nilotinib) | log2 fold change [1] | log2 fold change (dasatinib) | log2 fold change [2] | log2 fold change [3] | log2 fold change (quisinostat) | log2 fold change (tipifarnib) | log2 fold change [4] | log2 fold change [5] | log2 fold change [6] | log2 fold change [7] | log2 fold change (vorinostat) | log2 fold change (silmitasertib) | log2 fold change [8] | log2 fold change (entospletinib)
LRRC20 (UniProt Q8TCA0) is entered as inactive: 0.039 | inactive: -0.034 | inactive: 0.015 | inactive: 0.008 | inactive: 0.008 | inactive: -0.017 | inactive: 0.079 | inactive: -0.056 | inactive: -0.013 | inactive: 0.014 | inactive: -0.178 | inactive: 0.134 | inactive: 0.012 | inactive: -0.098 | inactive: -0.03
LIG3 (UniProt P49916) is entered as inactive: 0.012 | inactive: 0.002 | inactive: -0.011 | inactive: -0.019 | inactive: 0.046 | inactive: -0.024 | inactive: -0.004 | inactive: 0.059 | inactive: 0.008 | inactive: 0.011 | inactive: -0.061 | active: -0.411 | inactive: 0.018 | inactive: -0.012 | inactive: -0.004
